Results are given in words; binding and its absence hold for the method and conditions named. Binding seen in cells or lysates may run through a third protein. Some binding calls cover weakened binding; strength is not graded here.

The chains behind the UniProt entries cited, without tags or fusion partners.
UniProt Q9R210: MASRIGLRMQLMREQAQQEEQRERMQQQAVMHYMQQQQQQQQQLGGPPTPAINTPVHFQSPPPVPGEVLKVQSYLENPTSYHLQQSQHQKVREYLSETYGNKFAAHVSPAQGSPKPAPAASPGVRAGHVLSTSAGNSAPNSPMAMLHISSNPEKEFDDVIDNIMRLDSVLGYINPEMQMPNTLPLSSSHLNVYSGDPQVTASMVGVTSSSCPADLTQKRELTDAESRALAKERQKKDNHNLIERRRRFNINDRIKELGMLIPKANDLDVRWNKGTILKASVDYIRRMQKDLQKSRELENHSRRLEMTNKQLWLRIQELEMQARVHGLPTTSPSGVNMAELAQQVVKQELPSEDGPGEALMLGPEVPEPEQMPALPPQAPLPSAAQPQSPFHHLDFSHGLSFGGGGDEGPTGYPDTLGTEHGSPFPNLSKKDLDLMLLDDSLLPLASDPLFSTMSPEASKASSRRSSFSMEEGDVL
UniProt P19484: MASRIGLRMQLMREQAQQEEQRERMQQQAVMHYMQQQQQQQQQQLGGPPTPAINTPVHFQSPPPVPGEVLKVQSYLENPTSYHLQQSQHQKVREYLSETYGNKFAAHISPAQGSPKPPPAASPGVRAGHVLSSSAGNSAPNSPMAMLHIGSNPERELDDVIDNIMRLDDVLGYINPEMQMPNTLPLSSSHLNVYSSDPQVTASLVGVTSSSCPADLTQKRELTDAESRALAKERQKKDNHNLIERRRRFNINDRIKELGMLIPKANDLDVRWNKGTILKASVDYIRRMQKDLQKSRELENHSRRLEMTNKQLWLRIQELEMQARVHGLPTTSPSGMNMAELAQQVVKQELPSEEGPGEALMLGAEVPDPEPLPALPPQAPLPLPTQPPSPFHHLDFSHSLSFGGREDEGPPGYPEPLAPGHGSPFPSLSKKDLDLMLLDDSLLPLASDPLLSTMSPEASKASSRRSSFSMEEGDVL
UniProt P63330: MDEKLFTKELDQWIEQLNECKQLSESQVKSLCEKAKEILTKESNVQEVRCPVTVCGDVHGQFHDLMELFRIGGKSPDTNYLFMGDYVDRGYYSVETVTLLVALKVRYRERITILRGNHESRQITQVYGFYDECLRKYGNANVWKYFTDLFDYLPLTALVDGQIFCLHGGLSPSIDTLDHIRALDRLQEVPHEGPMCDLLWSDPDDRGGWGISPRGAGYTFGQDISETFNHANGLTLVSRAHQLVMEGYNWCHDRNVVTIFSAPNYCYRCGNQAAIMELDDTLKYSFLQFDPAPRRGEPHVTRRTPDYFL
UniProt P67775: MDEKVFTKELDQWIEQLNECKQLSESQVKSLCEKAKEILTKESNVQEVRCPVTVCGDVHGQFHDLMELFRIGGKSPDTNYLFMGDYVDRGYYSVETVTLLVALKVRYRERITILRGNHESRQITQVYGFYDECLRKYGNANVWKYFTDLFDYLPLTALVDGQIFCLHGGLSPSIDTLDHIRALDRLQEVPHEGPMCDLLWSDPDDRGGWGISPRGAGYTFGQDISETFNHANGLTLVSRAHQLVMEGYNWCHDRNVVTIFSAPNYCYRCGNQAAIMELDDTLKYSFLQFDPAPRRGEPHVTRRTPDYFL

Assay [1] addresses Transcription factor EB (TFEB) (endogenous, mouse primary hepatocytes) (mouse (endogenous in mouse primary hepatocytes)) (UniProt Q9R210). Nature of the assay: co-IP; endogenous PPP2CA and TFEB in mouse primary hepatocytes; which protein was precipitated is not given.
Assay [2] has as its target Transcription factor EB (TFEB) (overexpressed) (UniProt P19484). Kind of assay: co-IP; overexpressed PPP2CA and TFEB in HEK293T cells; which protein was precipitated is not given.

For the substance “PPP2CA, a catalytic subunit of PP2A (endogenous, mouse primary hepatocytes) (from UniProt P63330 1-309) (enzyme)”, the binding entry in assay [1] is “binds”.
As to “PPP2CA, a catalytic subunit of PP2A (overexpressed) (from UniProt P67775 1-309) (enzyme)”, the binding entry in assay [2] is “binds”.

(Values after PMC5518872.)
